Reference: EP3939596A1, “A COMPOSITION FOR TREATING HELMINTH INFESTATION IN A MAMMAL” (Bimeda Animal Health Limited, priority 2020, dated 2022)
The name of at least one read-out is uncertain.

Test: Plasma/blood level after oral administration
Type: in vivo, sheep
Excerpt: The Applicant has addressed the problems of the prior art by identifying a natural compound present in ivy (Hedera) that is effective at treating helminth infestations in a mammal. The natural compound is α-hederin, a water soluble pentacyclic triterpenoid saponin. The compound is quite a large molecule and would not be anticipated to be absorbed from the rumen following oral administration, but would be expected to be absorbed from the small intestine. […] This is highly surprising given the low plasma levels of α-hederin in treated sheep.
IVL-11 is a relatively large particle and so would not be anticipated to be absorbed from the rumen following oral administration. Instead, absorption from the small intestine would be predicted.

**Q.** With α-hederin [IVL-11] as the substance, how does the “time at which Cmax occurred after oral administration” value read?
**A.** Its value is “four”.
